Results on one compound are retold here after PMC10454243, “Anticancer Study of a Novel Pan-HDAC Inhibitor MPT0G236 in Colorectal Cancer Cells” (International Journal of Molecular Sciences, 2023).

The test system of assay [1] is human umbilical vein endothelial cells (HUVECs). The experiment in a line: MTT cell viability assay, HUVEC. As to conditions: 48 h, read-out: IC50 cell viability. The format is cell-based. Background: Tetrazolium dyes change colour on reduction, which living cells bring about.
Assay [2] concerns HCT-116 human colorectal cancer cells. The assay can be described thus: MTT cell viability assay, HCT-116. The format is cell-based. As to conditions: HCT-116, 48 h, read-out: IC50 cell viability.

SMILES strings stand for the structures.

Turning to `O=C(CCCCCCC(=O)Nc1ccccc1)NO` [SAHA, Suberoylanilide hydroxamic acid, reference compound], the results for the IC50 in assay [1] and in assay [2] were 16.6 µM and 1.28 µM, respectively.

Broadly, the IC50 is the midpoint of a concentration-inhibition curve.
